The target in the test is Flag-VAMP3 (Vesicle-associated membrane protein-3) (UniProt Q15836). The experiment in a line: co-IP; AGS cells cotransfected with Flag-VAMP3 plasmid and Myc-LC3C or Myc-LC3B plasmid; RIPA lysis buffer (weak) with protease inhibitors, antibodies on Protein A/G magnetic beads, 4 °C overnight, washed with PBST; which protein was precipitated is not told.

Sequences of proteins named here, by UniProt entry; tags and fusion partners are left off. Residues count along the entry.
UniProt Q15836: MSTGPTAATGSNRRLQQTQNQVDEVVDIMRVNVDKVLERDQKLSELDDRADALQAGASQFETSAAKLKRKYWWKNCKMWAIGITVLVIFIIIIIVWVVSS
UniProt Q9BXW4, residues 1-126: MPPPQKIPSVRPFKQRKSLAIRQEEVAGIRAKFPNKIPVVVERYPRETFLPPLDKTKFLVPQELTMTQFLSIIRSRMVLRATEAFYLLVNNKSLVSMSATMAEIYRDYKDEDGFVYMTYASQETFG

Drawing on article PMC11742886, this text covers binding for 1 substance.

These are yes or no findings as the source states them, for the method shown. Binding seen in cells or lysates may run through a third protein. Some entries that bind do so weakly or less than the wild type.

Myc-LC3C (from UniProt Q9BXW4 1-126): the binding result is on record as “binds”.
